From US7314866
Results are given in words; binding and its absence hold for the method and conditions named. Binding seen in cells or lysates may run through a third protein. Some binding calls cover weakened binding; strength is not graded here. For some assays here: Where a sequence is shown, tags or fusion partners need not be part of it.

Chains of the proteins cited; added tags and fusions are not shown.
UniProt Q07812: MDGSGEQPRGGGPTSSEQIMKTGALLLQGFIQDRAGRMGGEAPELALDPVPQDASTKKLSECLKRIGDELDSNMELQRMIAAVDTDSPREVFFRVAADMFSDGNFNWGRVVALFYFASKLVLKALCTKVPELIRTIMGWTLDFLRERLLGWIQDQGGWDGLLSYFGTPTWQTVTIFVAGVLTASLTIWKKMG

Legend:
human Bax (human) [1] = target: human Bax (human) (UniProt Q07812); assay: competition in co-immunoprecipitation of Bax and Ku70, HEK293T lysates
human Bax (human) [2] = target: human Bax (human) (UniProt Q07812); assay: competition in co-immunoprecipitation of Bax and Ku70, HEK293T CHAPS lysates
human Bax (human) [3] = target: human Bax (human) (UniProt Q07812); assay: streptavidin bead pull-down from HEK293T CHAPS lysates, Western blot of Bax

binding (human Bax (human) [1]) | binding (human Bax (human) [2]) | binding (human Bax (human) [3]) | Binder
binds | binds |  | VPMLK [VPMLK (V5; SEQ ID NO: 1) peptide]
binds | binds |  | PMLKE [PMLKE (P5; SEQ ID NO: 2) peptide]
 |  | binds | VPMLK (biotin-labeled, printed as biotin-VPMLK) [Biotin-labeled BIP (biotin-VPMLK; SEQ ID NO: 1)]
